Assay results published in the supplement of paper PMC8728848.
The other results are listed elsewhere or left out.

Columns and labels:
Experiment in all cases: glycan array binding signal (z-score within array); higher = stronger binding
Conditions in all cases: glycan notation: IUPAC condensed, linker removed
[1] = biological target: Neu5Ac(a2-3)Gal(b1-3)[Fuc(a1-4)]GlcNAc
Summary of the method: (§1)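 Glycan array binding is given as a within-array Z-score, which can be read as non-binding when negative. The arrays, 3228 of them, came from the Consortium for Functional Glycomics database and were retained only where the protein sequence was available. Z-scores were averaged across arrays of the same protein sequence at different concentrations or buffers and across linkers.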

[2] = biological target: Neu5Ac(a2-3)Gal(b1-3)[Fuc(a1-4)]GlcNAc(b1-3)Gal(b1-3)[Fuc(a1-4)]GlcNAc
Summary of the method: as §1

[3] = biological target: Neu5Ac(a2-3)Gal(b1-3)[Fuc(a1-4)]GlcNAc(b1-3)Gal(b1-4)[Fuc(a1-3)]GlcNAc
Summary of the method: as §1

[4] = biological target: Neu5Ac(a2-3)Gal(b1-3)[GlcNAc(b1-6)]GalNAc
Summary of the method: as §1

[5] = biological target: Neu5Ac(a2-3)Gal(b1-3)[Neu5Ac(a2-6)]GalNAc
Summary of the method: as §1

[6] = biological target: Neu5Ac(a2-3)Gal(b1-3)[Neu5Ac(a2-6)]GlcNAc(b1-3)[Fuc(a1-3)[Gal(b1-4)]GlcNAc(b1-6)]Gal(b1-4)Glc
Summary of the method: as §1

[7] = biological target: Neu5Ac(a2-3)Gal(b1-3)]Neu5Ac(a2-3)Gal(b1-4)]GlcNAc
Summary of the method: as §1

[8] = biological target: Neu5Ac(a2-3)Gal(b1-4)Glc
Summary of the method: as §1

[9] = biological target: Neu5Ac(a2-3)Gal(b1-4)GlcNAc
Summary of the method: as §1

[10] = biological target: Neu5Ac(a2-3)Gal(b1-4)GlcNAc(b1-2)Man
Summary of the method: as §1

[11] = biological target: Neu5Ac(a2-3)Gal(b1-4)GlcNAc(b1-2)Man(a1-3)[GlcNAc(b1-4)][Neu5Ac(a2-3)Gal(b1-4)GlcNAc(b1-2)Man(a1-6)]Man(b1-4)GlcNAc(b1-4)GlcNAc
Summary of the method: as §1

[12] = biological target: Neu5Ac(a2-3)Gal(b1-4)GlcNAc(b1-2)Man(a1-3)[Neu5Ac(a2-3)Gal(b1-4)GlcNAc(b1-2)Man(a1-6)]Man(b1-4)GlcNAc(b1-4)GlcNAc
Summary of the method: as §1

[13] = biological target: Neu5Ac(a2-3)Gal(b1-4)GlcNAc(b1-2)Man(a1-3)[Neu5Ac(a2-3)Gal(b1-4)GlcNAc(b1-2)Man(a1-6)]Man(b1-4)GlcNAc(b1-4)[Fuc(a1-6)]GlcNAc
Summary of the method: as §1

[14] = biological target: Neu5Ac(a2-3)Gal(b1-4)GlcNAc(b1-2)Man(a1-3)[Neu5Ac(a2-6)Gal(b1-4)GlcNAc(b1-2)Man(a1-6)]Man(b1-4)GlcNAc(b1-4)GlcNAc
Summary of the method: as §1

[15] = biological target: Neu5Ac(a2-3)Gal(b1-4)GlcNAc(b1-2)[Neu5Ac(a2-3)Gal(b1-4)GlcNAc(b1-4)]Man(a1-3)[GlcNAc(b1-4)][Neu5Ac(a2-3)Gal(b1-4)GlcNAc(b1-2)[Neu5Ac(a2-3)Gal(b1-4)GlcNAc(b1-6)]Man(a1-6)]Man(b1-4)GlcNAc(b1-4)GlcNAc
Summary of the method: as §1

[16] = biological target: Neu5Ac(a2-3)Gal(b1-4)GlcNAc(b1-2)[Neu5Ac(a2-3)Gal(b1-4)GlcNAc(b1-4)]Man(a1-3)[GlcNAc(b1-4)][Neu5Ac(a2-3)Gal(b1-4)GlcNAc(b1-4)Man(a1-6)]Man(b1-4)GlcNAc(b1-4)GlcNAc
Summary of the method: as §1

[17] = biological target: Neu5Ac(a2-3)Gal(b1-4)GlcNAc(b1-2)[Neu5Ac(a2-3)Gal(b1-4)GlcNAc(b1-6)]Man(a1-6)[Neu5Ac(a2-3)Gal(b1-4)GlcNAc(b1-2)Man(a1-3)]Man(b1-4)GlcNAc(b1-4)GlcNAc
Summary of the method: as §1

[18] = biological target: Neu5Ac(a2-3)Gal(b1-4)GlcNAc(b1-2)[Neu5Ac(a2-3)Gal(b1-4)GlcNAc(b1-6)]Man(a1-6)[Neu5Ac(a2-3)Gal(b1-4)GlcNAc(b1-2)Man(a1-3)][GlcNAc(b1-4)]Man(b1-4)GlcNAc(b1-4)GlcNAc
Summary of the method: as §1

[19] = biological target: Neu5Ac(a2-3)Gal(b1-4)GlcNAc(b1-3)Gal
Summary of the method: as §1

[20] = biological target: Neu5Ac(a2-3)Gal(b1-4)GlcNAc(b1-3)Gal(b1-3)GlcNAc
Summary of the method: as §1

[21] = biological target: Neu5Ac(a2-3)Gal(b1-4)GlcNAc(b1-3)Gal(b1-4)GlcNAc
Summary of the method: as §1

[22] = biological target: Neu5Ac(a2-3)Gal(b1-4)GlcNAc(b1-3)Gal(b1-4)GlcNAc(b1-2)Man(a1-3)[Neu5Ac(a2-3)Gal(b1-4)GlcNAc(b1-3)Gal(b1-4)GlcNAc(b1-2)Man(a1-6)]Man(b1-4)GlcNAc(b1-4)GlcNAc
Summary of the method: as §1

[23] = biological target: Neu5Ac(a2-3)Gal(b1-4)GlcNAc(b1-3)Gal(b1-4)GlcNAc(b1-3)Gal(b1-4)GlcNAc
Summary of the method: as §1

[24] = biological target: Neu5Ac(a2-3)Gal(b1-4)GlcNAc(b1-3)Gal(b1-4)GlcNAc(b1-3)Gal(b1-4)GlcNAc(b1-2)Man(a1-3)[Neu5Ac(a2-3)Gal(b1-4)GlcNAc(b1-3)Gal(b1-4)GlcNAc(b1-3)Gal(b1-4)GlcNAc(b1-2)Man(a1-6)]GalNAc
Summary of the method: as §1

[25] = biological target: Neu5Ac(a2-3)Gal(b1-4)GlcNAc(b1-3)Gal(b1-4)GlcNAc(b1-3)GalNAc
Summary of the method: as §1

[26] = biological target: Neu5Ac(a2-3)Gal(b1-4)GlcNAc(b1-3)Gal(b1-4)GlcNAc(b1-3)[Neu5Ac(a2-3)Gal(b1-4)GlcNAc(b1-3)Gal(b1-4)GlcNAc(b1-6)]GalNAc
Summary of the method: as §1

[27] = biological target: Neu5Ac(a2-3)Gal(b1-4)GlcNAc(b1-3)Gal(b1-4)GlcNAc(b1-6)[Gal(b1-3)]GalNAc
Summary of the method: as §1

[28] = biological target: Neu5Ac(a2-3)Gal(b1-4)GlcNAc(b1-3)Gal(b1-4)[Fuc(a1-3)]GlcNAc
Summary of the method: as §1

[29] = biological target: Neu5Ac(a2-3)Gal(b1-4)GlcNAc(b1-3)GalNAc
Summary of the method: as §1

[30] = biological target: Neu5Ac(a2-3)Gal(b1-4)GlcNAc(b1-3)[Neu5Ac(a2-3)Gal(b1-4)GlcNAc(b1-6)]GalNAc
Summary of the method: as §1

B1: Langerin K299A/K313A (Homo sapiens), Q9UJ71 (protein)
chain: STLNAQIPELKSDLEKASALNTKIRALQGSLENMSKLLKRQNDILQVVSQGWKYFKGNFYYFSLIPKTWYSAEQFCVSRNSHLTSVTSESEQEFLYKTAGGLIYWIGLTKAGMEGDWSWVDDTPFNKVQSARFWIPGEPNNAGNNEHCGNIAAPSLQAWNDAPCDATFLFICKRPYVPSEP
- glycan array binding signal (z-score) [1]: -0.583
- glycan array binding signal (z-score) [2]: 1.71
- glycan array binding signal (z-score) [3]: 0.913
- glycan array binding signal (z-score) [4]: -0.068
- glycan array binding signal (z-score) [5]: 0.974
- glycan array binding signal (z-score) [6]: -0.995
- glycan array binding signal (z-score) [7]: -0.288
- glycan array binding signal (z-score) [8]: -0.259
- glycan array binding signal (z-score) [9]: -0.74
- glycan array binding signal (z-score) [10]: 0.939
- glycan array binding signal (z-score) [11]: -0.575
- glycan array binding signal (z-score) [12]: -0.447
- glycan array binding signal (z-score) [13]: 2.18
- glycan array binding signal (z-score) [14]: -0.607
- glycan array binding signal (z-score) [15]: -0.935
- glycan array binding signal (z-score) [16]: 0.006
- glycan array binding signal (z-score) [17]: -0.473
- glycan array binding signal (z-score) [18]: -0.681
- glycan array binding signal (z-score) [19]: -1.37
- glycan array binding signal (z-score) [20]: -0.722
- glycan array binding signal (z-score) [21]: -1.35
- glycan array binding signal (z-score) [22]: 0.24
- glycan array binding signal (z-score) [23]: 0.361
- glycan array binding signal (z-score) [24]: 0.673
- glycan array binding signal (z-score) [25]: -0.893
- glycan array binding signal (z-score) [26]: 0.403
- glycan array binding signal (z-score) [27]: 0.103
- glycan array binding signal (z-score) [28]: 0.253
- glycan array binding signal (z-score) [29]: -0.07
- glycan array binding signal (z-score) [30]: -0.002
